PubChem BioAssay AID1159584 – Peter MacCallum Cancer Centre | 2016

Aim: 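Genes that CDH1-null MCF10A cells selectively depend on to survive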 (primary screen)
System: human MCF10A breast epithelial cells, parental and CDH1-null
Reagents: siRNA against human genes
Read-out: 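ATP luminescence (CellTiter-Glo) viability per line relative to mean mock wells over all plates, and the ratio of CDH1-null to parental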
Direction: CDH1-null / parental viability ratio: higher = CDH1-null cells survive relatively better than parental; CDH1-null viability vs mock: higher = more viable CDH1-null cells
Units: CDH1-null viability vs mock in fraction of mock
The whole screen tested about 18,000 reagents; below is an unselected part. Not all columns of the deposit are shown. The record does not give: the amount of reagent, the time to read-out.

ADCK1 (GeneID 57143) → CDH1-null / parental viability ratio = 1.15; CDH1-null viability vs mock = 0.94
TRIB1 (GeneID 10221) → CDH1-null / parental viability ratio = 0.92; CDH1-null viability vs mock = 0.81
ZSCAN21 (GeneID 7589) → CDH1-null / parental viability ratio = 0.96; CDH1-null viability vs mock = 0.86
CAMK1 (GeneID 8536) → CDH1-null / parental viability ratio = 0.92; CDH1-null viability vs mock = 0.7
RDH8 (GeneID 50700) → CDH1-null / parental viability ratio = 0.9; CDH1-null viability vs mock = 0.85
LRRC31 (GeneID 79782) → CDH1-null / parental viability ratio = 0.96; CDH1-null viability vs mock = 0.86
DEFB129 (GeneID 140881) → CDH1-null / parental viability ratio = 1.34; CDH1-null viability vs mock = 0.78
PCBP3 (GeneID 54039) → CDH1-null / parental viability ratio = 0.99; CDH1-null viability vs mock = 0.66
NGF (GeneID 4803) → CDH1-null / parental viability ratio = 1.03; CDH1-null viability vs mock = 0.79
UNC5A (GeneID 90249) → CDH1-null / parental viability ratio = 0.79; CDH1-null viability vs mock = 0.68
OGT (GeneID 8473) → CDH1-null / parental viability ratio = 1; CDH1-null viability vs mock = 0.8

Already shown: entries from further up.
RDH8 (GeneID 50700) → CDH1-null / parental viability ratio = 0.9; CDH1-null viability vs mock = 0.85
LRRC31 (GeneID 79782) → CDH1-null / parental viability ratio = 0.96; CDH1-null viability vs mock = 0.86
DEFB129 (GeneID 140881) → CDH1-null / parental viability ratio = 1.34; CDH1-null viability vs mock = 0.78
PCBP3 (GeneID 54039) → CDH1-null / parental viability ratio = 0.99; CDH1-null viability vs mock = 0.66

Further entries follow.
G0S2 (GeneID 50486) → CDH1-null / parental viability ratio = 0.94; CDH1-null viability vs mock = 0.68
OTUD5 (GeneID 55593) → CDH1-null / parental viability ratio = 0.98; CDH1-null viability vs mock = 0.64
CXCL14 (GeneID 9547) → CDH1-null / parental viability ratio = 0.98; CDH1-null viability vs mock = 0.58
EFHB (GeneID 151651) → CDH1-null / parental viability ratio = 0.94; CDH1-null viability vs mock = 0.81
SIAH1 (GeneID 6477) → CDH1-null / parental viability ratio = 1.12; CDH1-null viability vs mock = 0.67
JOSD2 (GeneID 126119) → CDH1-null / parental viability ratio = 1.1; CDH1-null viability vs mock = 0.88
PRSS12 (GeneID 8492) → CDH1-null / parental viability ratio = 1.28; CDH1-null viability vs mock = 0.64
ABCB5 (GeneID 340273) → CDH1-null / parental viability ratio = 1.06; CDH1-null viability vs mock = 0.82
OR5D13 (GeneID 390142) → CDH1-null / parental viability ratio = 1.28; CDH1-null viability vs mock = 0.92
EXO5 (GeneID 64789) → CDH1-null / parental viability ratio = 0.91; CDH1-null viability vs mock = 1
SARDH (GeneID 1757) → CDH1-null / parental viability ratio = 1.14; CDH1-null viability vs mock = 0.96
KRT86 (GeneID 3892) → CDH1-null / parental viability ratio = 1.01; CDH1-null viability vs mock = 0.79
ZSCAN9 (GeneID 7746) → CDH1-null / parental viability ratio = 0.95; CDH1-null viability vs mock = 0.94
